Consider 23 sequences from article PMC7819943, “Rice protein-binding microarrays: a tool to detect cis-acting elements near promoter regions in rice”.

Some of the results follow.

The target of this test is T1, OsSMF1 (Oryza sativa, UniProt Q6ZLB0 1-436).
T1 sequence: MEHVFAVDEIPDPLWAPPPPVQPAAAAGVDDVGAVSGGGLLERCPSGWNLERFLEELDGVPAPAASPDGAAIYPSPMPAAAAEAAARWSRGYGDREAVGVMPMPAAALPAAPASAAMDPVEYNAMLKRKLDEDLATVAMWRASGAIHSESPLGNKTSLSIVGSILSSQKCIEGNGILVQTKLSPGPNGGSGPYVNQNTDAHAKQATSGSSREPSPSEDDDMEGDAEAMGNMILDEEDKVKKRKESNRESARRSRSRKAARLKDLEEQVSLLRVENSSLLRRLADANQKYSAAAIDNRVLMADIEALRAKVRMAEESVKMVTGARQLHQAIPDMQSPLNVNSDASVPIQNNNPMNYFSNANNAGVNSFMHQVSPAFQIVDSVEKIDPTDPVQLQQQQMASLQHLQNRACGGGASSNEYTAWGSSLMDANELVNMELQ
Put plainly: protein-binding microarray (RPBM); PBS, 2% BSA, 51.3 ng/ul salmon testes DNA, 50 uM zinc acetate, 200 nM TF, 25 C, 1 h; high values mean tight binding. The settings on record: protein: recombinant; tags: N-terminal polyhistidine and DsRed monomer fusion (pET32a); chain copies: 2; label: CyDye5-dUTP incorporated in the synthesized complementary strand; 3' TTTTT single-stranded linker to array surface; dsDNA, one strand shown. The essentials:
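In PBS with 2% BSA, salmon testes DNA and 50 µM zinc acetate, 200 nM protein was incubated on a custom Agilent array at 25 °C for 1 h and then washed off. The array had been made double-stranded by primer extension with Cy5-dUTP and blocked with 2% BSA. The proteins were transcription factors fused N-terminally to polyhistidine and DsRed, expressed in E. coli BL21-CodonPlus and purified on Ni–NTA. The binding signal is per-feature fluorescence intensity (arbitrary units) from an Axon 4000B scanner.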
Turning to “GTGGCGCGGAATGTGTGTTGGCATGCTGACTTAGCCTCCCCGGAGTCACCTAGTGCAG”, the binding signal is 5880 fluorescence intensity (a.u.).

For the sequence “TCATTCTCCGACATCTATCGTCGCCGTCACCAACATCCTACGGAGTCACCTAGTGCAG”, the binding signal was 3930 fluorescence intensity (a.u.).

Take “CGGTTTACGAGGACGTGGTACACGTTTCATGTACACCGCACGGAGTCACCTAGTGCAG”: the binding signal was 5100 fluorescence intensity (a.u.).

With “TGGGCCTGCGTAGACGCTGACTCCGCTTTGCTGGATTGTCCGGAGTCACCTAGTGCAG”, the binding signal was 8910 fluorescence intensity (a.u.).

Turning to “ACCTCGTCGCTGCGCCGCGCGGCCTCGACGTGGCCGCCACCGGAGTCACCTAGTGCAG”, the binding signal is 3790 fluorescence intensity (a.u.).

As to “GGGGATAATCTCTGAAGAAAGGCCGGGCAATGATTACCACCGGAGTCACCTAGTGCAG”, the binding signal is 4490 fluorescence intensity (a.u.).

As for “ATATTTCGCCCAAATTCTCCCACGTACTAGGGCCACCACCCGGAGTCACCTAGTGCAG”, the binding signal is 3360 fluorescence intensity (a.u.).

“ACATCTGGCGCGGCGGCCACGAGTACATCGGGACGTGGAACGGAGTCACCTAGTGCAG”: the binding signal is 3170 fluorescence intensity (a.u.).

Regarding “TATCCATCCATGCATTTGTCATCTGCCAACTCACCTACCTCGGAGTCACCTAGTGCAG”, the binding signal is 8250 fluorescence intensity (a.u.).

As for “TATCCTCTTTGCTGCTAATGGTGTCATTATCCCGTGTGTACGGAGTCACCTAGTGCAG”, the binding signal is 3940 fluorescence intensity (a.u.).

On to “GCCCTTTGTAGTTAATACAACGATGTGGGTTGCTTTTGCTCGGAGTCACCTAGTGCAG”, for which the binding signal was 19400 fluorescence intensity (a.u.).

For “CAGCATCAGCTGCATCACTCCCCGCCTCTCCGCGATCGCACGGAGTCACCTAGTGCAG”, the binding signal was 3280 fluorescence intensity (a.u.).

For the sequence “GGTGGTGACCGCGTCGTCGCGGAGCGGGAGGCGCGCGAGGCGGAGTCACCTAGTGCAG”, the binding signal is 30200 fluorescence intensity (a.u.).

With “GCCCAAATTCAACCCGACGCCACGAGGCAACCTGACTCGGCGGAGTCACCTAGTGCAG”, the binding signal was 6490 fluorescence intensity (a.u.).

As to “TATAAATTAAACACAGCCACGTAACCCTAATTTCAGAAACCGGAGTCACCTAGTGCAG”, the binding signal was 7400 fluorescence intensity (a.u.).

In the case of “GAGGATAAAGTATGCACACGTGTGACATATGGCAAGACAACGGAGTCACCTAGTGCAG”, the binding signal is 6410 fluorescence intensity (a.u.).

In the case of “GCCCTTATGAATATTGGCGTGTCGCGACGCCCCACGACTCCGGAGTCACCTAGTGCAG”, the binding signal was 3820 fluorescence intensity (a.u.).

As for “GTTTGTCTGACCCAACTAAAGCCCTTGAGATATTACAAATCGGAGTCACCTAGTGCAG”, the binding signal was 4480 fluorescence intensity (a.u.).

On to “TTGATCATAGTTTTAGCTGATGTGGCTCCTACATGGTGACCGGAGTCACCTAGTGCAG”, for which the binding signal was 6450 fluorescence intensity (a.u.).

“GCCACCTCGGCGCATCCACGCAACCCACCCGTCGCGAGTCCGGAGTCACCTAGTGCAG”: the binding signal is 3320 fluorescence intensity (a.u.).

For the sequence “TAACTTCTTGCAGAAATGCCTCGTCATCGGTGACGCCGTTCGGAGTCACCTAGTGCAG”, the binding signal was 4870 fluorescence intensity (a.u.).

In the case of “CGCCGCTCACCGGCGACGGGCGGCGCCGGATTTCGCCGTCCGGAGTCACCTAGTGCAG”, the binding signal is 4860 fluorescence intensity (a.u.).

Turning to “AGGACTGCCCTGACCCTGACACGCGCCAAGCTGTTCCTCCCGGAGTCACCTAGTGCAG”, the binding signal was 3810 fluorescence intensity (a.u.).
